In publication PMC4164936, “The translation elongation factor eEF1A1 couples transcription to translation during heat shock response”:
These are yes or no findings as the source states them, for the method shown. For some of these results: Binding seen in cells or lysates may run through a third protein. Some entries that bind do so weakly or less than the wild type.

Amino acid sequences for entries named in this document (tags omitted). A change or cut given only in a name is not applied to a line headed by its entry.
UniProt P68104: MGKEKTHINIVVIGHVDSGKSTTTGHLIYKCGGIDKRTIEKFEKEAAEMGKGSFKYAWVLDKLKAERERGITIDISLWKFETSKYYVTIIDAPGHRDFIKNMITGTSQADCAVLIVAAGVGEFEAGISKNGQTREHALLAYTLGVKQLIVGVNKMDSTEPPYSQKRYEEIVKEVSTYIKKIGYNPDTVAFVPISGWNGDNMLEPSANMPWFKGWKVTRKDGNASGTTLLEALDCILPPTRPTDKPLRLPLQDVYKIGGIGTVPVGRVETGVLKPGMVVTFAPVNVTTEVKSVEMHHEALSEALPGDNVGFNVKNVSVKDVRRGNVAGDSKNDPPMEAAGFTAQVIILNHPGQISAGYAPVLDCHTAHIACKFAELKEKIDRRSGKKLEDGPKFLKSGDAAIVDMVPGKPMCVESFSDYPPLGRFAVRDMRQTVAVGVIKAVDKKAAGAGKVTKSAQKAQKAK
UniProt Q00613: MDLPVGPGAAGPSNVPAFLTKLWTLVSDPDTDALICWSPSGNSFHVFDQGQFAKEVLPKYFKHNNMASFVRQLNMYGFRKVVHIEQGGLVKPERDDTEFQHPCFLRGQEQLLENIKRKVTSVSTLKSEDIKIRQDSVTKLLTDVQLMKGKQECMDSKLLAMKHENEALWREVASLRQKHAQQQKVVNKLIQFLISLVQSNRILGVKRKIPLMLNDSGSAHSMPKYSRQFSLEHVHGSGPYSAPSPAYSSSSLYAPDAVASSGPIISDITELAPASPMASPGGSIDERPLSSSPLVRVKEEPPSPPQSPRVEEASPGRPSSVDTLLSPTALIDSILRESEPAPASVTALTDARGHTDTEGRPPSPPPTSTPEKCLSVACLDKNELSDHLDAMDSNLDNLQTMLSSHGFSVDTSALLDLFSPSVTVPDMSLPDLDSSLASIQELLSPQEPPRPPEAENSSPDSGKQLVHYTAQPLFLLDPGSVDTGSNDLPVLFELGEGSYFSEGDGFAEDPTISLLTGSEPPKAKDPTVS
UniProt P12270: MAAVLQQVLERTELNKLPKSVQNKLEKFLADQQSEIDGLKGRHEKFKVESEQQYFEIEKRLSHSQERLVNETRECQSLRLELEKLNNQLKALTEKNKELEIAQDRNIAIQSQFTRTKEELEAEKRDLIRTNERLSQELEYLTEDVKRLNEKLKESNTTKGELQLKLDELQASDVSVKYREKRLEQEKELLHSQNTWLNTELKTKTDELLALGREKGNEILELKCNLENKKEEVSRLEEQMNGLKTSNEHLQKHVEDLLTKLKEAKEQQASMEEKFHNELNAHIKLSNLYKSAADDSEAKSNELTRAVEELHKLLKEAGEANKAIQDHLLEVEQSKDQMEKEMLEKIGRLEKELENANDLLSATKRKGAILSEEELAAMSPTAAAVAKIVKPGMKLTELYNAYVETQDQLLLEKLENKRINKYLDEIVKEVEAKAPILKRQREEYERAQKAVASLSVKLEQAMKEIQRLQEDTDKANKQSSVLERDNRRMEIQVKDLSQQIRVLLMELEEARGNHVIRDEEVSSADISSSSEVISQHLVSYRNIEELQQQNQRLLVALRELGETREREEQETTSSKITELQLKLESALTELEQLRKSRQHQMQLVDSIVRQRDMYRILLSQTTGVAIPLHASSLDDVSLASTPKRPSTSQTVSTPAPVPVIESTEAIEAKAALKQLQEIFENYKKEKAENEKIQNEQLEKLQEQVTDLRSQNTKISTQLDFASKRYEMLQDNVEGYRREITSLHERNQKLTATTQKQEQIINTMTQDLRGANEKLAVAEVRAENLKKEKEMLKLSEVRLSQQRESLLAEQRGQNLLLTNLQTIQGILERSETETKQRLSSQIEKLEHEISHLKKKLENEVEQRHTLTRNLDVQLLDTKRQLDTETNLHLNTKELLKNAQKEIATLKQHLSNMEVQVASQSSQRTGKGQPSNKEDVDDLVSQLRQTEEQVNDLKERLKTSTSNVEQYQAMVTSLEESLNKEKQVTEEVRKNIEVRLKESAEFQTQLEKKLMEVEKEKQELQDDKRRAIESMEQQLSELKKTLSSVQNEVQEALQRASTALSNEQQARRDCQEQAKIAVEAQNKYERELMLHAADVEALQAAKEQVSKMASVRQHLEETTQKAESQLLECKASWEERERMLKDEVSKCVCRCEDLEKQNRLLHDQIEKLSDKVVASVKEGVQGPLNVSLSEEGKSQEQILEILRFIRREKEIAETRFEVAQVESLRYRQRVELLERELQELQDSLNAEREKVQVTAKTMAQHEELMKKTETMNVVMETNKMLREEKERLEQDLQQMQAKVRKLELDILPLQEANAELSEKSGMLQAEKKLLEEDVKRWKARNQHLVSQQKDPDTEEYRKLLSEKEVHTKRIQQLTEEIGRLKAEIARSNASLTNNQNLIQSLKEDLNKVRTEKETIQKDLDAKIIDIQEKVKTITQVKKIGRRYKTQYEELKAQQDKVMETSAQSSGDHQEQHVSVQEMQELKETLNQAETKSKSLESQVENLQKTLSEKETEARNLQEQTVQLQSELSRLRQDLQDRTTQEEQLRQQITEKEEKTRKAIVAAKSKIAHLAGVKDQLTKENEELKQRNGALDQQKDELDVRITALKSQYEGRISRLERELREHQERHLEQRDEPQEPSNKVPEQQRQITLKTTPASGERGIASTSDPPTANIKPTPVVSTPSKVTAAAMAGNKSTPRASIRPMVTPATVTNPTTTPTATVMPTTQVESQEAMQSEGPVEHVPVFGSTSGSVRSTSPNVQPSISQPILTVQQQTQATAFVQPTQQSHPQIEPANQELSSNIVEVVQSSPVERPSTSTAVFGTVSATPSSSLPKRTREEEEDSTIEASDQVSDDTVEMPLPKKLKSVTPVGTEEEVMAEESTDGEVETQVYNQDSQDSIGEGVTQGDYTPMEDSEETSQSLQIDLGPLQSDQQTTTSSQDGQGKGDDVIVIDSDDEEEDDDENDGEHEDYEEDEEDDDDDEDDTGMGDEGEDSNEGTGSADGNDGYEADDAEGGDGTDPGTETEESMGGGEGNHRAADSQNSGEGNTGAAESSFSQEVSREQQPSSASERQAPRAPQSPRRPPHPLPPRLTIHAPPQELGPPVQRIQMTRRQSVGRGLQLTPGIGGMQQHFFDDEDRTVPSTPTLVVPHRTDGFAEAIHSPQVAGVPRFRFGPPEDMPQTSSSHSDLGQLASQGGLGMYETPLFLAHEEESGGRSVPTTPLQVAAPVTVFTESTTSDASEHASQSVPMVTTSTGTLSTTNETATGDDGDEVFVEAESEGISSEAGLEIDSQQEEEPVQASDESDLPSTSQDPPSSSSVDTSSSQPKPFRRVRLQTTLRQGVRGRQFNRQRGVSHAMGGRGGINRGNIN

Key:
[1] = molecular target: translation elongation factor eEF1A1 (isoform 1 of eEF1A) (human (endogenous in MDA-MB231)) (UniProt P68104); test: co-IP; extracts of unstressed or heat-shocked (43°C) MDA-MB231 cells; nonidet lysis buffer (25 mM Hepes pH 7.9, 100 mM NaCl, 5 mM EDTA, 0.5% NP40); 1 mg pre-cleared protein IPed overnight at 4°C with 5 ug anti-eEF1A1 or IgG, Dynabeads protein G, five washes in B150; immunoblot
[2] = molecular target: heat shock factor 1 (HSF1) (human (endogenous in MDA-MB231)) (UniProt Q00613); test: co-IP; extracts of unstressed or heat-shocked MDA-MB231 cells IPed with HSF1 antibody or IgG; SDS-PAGE and immunoblotting
[3] = molecular target: heat shock factor 1 (HSF1) (human (endogenous in MDA-MB231)) (UniProt Q00613); test: native gel or EMSA; super-shift of the HSF1-HSE EMSA by anti-eEF1A1 antibody; extracts of MDA-MB231 cells heat-shocked 20 min at 43°C or treated with arsenite; 10 ug extract incubated with 1 ug antibody for 1 hr before radiolabelled HSE; IgG as mock

binding [1]	binding [2]	binding [3]	Substance
binds	–	–	heat shock factor 1 (HSF1) (from UniProt Q00613-1 1-529)
–	binds	binds	translation elongation factor eEF1A1 (isoform 1 of eEF1A) (from UniProt P68104 1-462)
binds	–	–	nuclear pore complex (NPC) protein TPR1 (from UniProt P12270 1-2363)
